Among all 220,000 compounds or so, about 2,400 (1.1%) were called active. Inconclusive results, whose numbers are uncertain, are shown with a selection of clear calls. Calls follow the shape of the dose curve; as a rule, active = well fitted inhibition curve with a large enough effect; inconclusive = small, poorly fitted or top-dose-only effect, or effect the other way; inactive = no such curve, though single readings can be large or run the other way. Potencies of inconclusive entries are doubtful fits and often do not repeat.
Experiment: qHTS Multiplex Assay to Identify Dual Action Probes in a Cell Model of Huntington: Aggregate Formation (GFP); also: nearly all actives have a fitted effect of over 60% in size
Conditions: PC12 HttQ103-GFP aggregates, Acumen cytometry, 40 h; activity change, negative = inhibition: at 46.1 µM (top of the series) unless noted
Outline: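 Ecdysone-promoter PC12 model expressing HTT exon 1 Q103 fused to GFP, induced by tebufenozide at 100 nM final. Compounds titrated; aggregates sized 1–25 µm scored on a 488 nm laser cytometer.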
% is scaled to controls: 0 for no effect and ±100 for the full control effect; potency is read from the fitted curve at half-maximal effect.

Row | Compound | Potency | activity change, negative = inhibition
1 | CCN(CC)c1ccc(-c2nn3c(-c4n[nH]c5c4CCC5)nnc3s2)cc1 | active: 12.6 µM | 
2 | CCCCCC(=O)O[C@]1(C(C)=O)CC[C@H]2[C@@H]3CCC4=CC(=O)CC[C@]4(C)[C@H]3CC[C@@]21C | inconclusive: 10 µM [inhibitor, partial curve] | 
3 | COc1ccc(C2C(C(=O)Nc3ccccc3OC)=C(C)Nc3ncnn32)cc1 (stereo not drawn) | inactive | 
4 | CN(C)S(=O)(=O)c1ccc(Cl)c(NC(=O)COC(=O)CCSc2ccccc2)c1 | inactive | 
5 | COc1ccc(N2CCN(C(=O)c3ccc(S(=O)(=O)N4CCOCC4)cc3)CC2)cc1 | inconclusive: 3.98 µM [inhibitor, single point] | 
6 | Cc1cccc(C)c1OCCN1C(=O)NC(C)(c2ccccc2)C1=O (stereo not drawn) | inactive | 
7 | CCOC(=O)C(CC)/C(C)=N\NC(=O)c1cccc(C)c1 (stereo not drawn) | inconclusive: 5.62 µM [activator, single point] | 
8 | COCCNC(=O)C(C)OC(=O)c1cc2occc2n1C (stereo not drawn) | inconclusive: 1.26 µM [inhibitor, single point] | 
9 | Cc1ccc2cc(CN(Cc3ccc(F)cc3)Cc3nnnn3C3CCCC3)c(=O)[nH]c2c1 | active: 25.1 µM | 
10 | COc1ccc2[nH]c(=O)c(CN(CC3CCCO3)C(=O)Nc3ccccc3OC)cc2c1 (stereo not drawn) | inconclusive: 20 µM [inhibitor, single point] | 
11 | O=C(O)CNS(=O)(=O)c1c(Cl)cccc1Cl |  | inactive: 0.316% [at 9.22 µM]
12 | N#CC1=C(N)OC2=C(C(=O)CCC2)C1c1ccc(OC(=O)N2CCOCC2)cc1 (stereo not drawn) | inactive | 
13 | O=C(N/N=C/c1ccc(F)cc1)c1c(O)c2ccccc2[nH]c1=O | active: 3.55 µM | 
14 | COc1ccc(-c2nc(C#N)c(NCCc3ccccc3)o2)cc1 | inactive | 
15 | Clc1ccc(SCCn2cncn2)cc1 | inconclusive: 5.62 µM [inhibitor, partial curve] | 
16 | N#CCSc1nc2c(cc1C#N)CCCCCC2 | inconclusive: 2.82 µM [activator, single point] | 
17 | Cc1cc(OCC(O)CNC(C)(C)C)ccc1Cl (stereo not drawn) | inconclusive: 31.6 µM [inhibitor, single point] | 
18 | Cc1cc2nc(/C=C/c3nc4cc(C)c(C)cc4[nH]3)[nH]c2cc1C |  | inactive: 10.7% [at 9.22 µM]
19 | COCCCNC(=O)C1CCC(CNS(=O)(=O)c2ccc(Cl)cc2)CC1 (stereo not drawn) | inactive | 
20 | COC(=O)Cc1c(C)nc2nc(-c3ccc(OC)cc3)[nH]n2c1=O | inconclusive: 3.16 µM [inhibitor, single point] | 
21 | Clc1ncnc2scc(C3COc4ccccc4O3)c12 (stereo not drawn) | inconclusive: 22.4 µM [inhibitor, single point] | 
22 | CCOC(=O)c1ccc(NC(=O)[C@@H](NC(N)=O)C(C)C)cc1 | inconclusive: 1.26 µM [activator, single point] | 
23 | CCN1CCN(Cc2cc(=O)oc3cc(C)cc(C)c23)CC1 | inactive | 
24 | CCOc1ccc(CN(Cc2ccco2)C(c2cccs2)c2nnnn2C(C)(C)C)cc1 (stereo not drawn) | inconclusive: 20 µM [inhibitor, partial curve] | 

Filtered by structure, the compounds so far containing a carbonyl joined to an NH by a bond outside any ring (eight)
Row | Compound | Potency | activity change, negative = inhibition
3 | COc1ccc(C2C(C(=O)Nc3ccccc3OC)=C(C)Nc3ncnn32)cc1 (stereo not drawn) | inactive | 
4 | CN(C)S(=O)(=O)c1ccc(Cl)c(NC(=O)COC(=O)CCSc2ccccc2)c1 | inactive | 
7 | CCOC(=O)C(CC)/C(C)=N\NC(=O)c1cccc(C)c1 (stereo not drawn) | inconclusive: 5.62 µM [activator, single point] | 
8 | COCCNC(=O)C(C)OC(=O)c1cc2occc2n1C (stereo not drawn) | inconclusive: 1.26 µM [inhibitor, single point] | 
10 | COc1ccc2[nH]c(=O)c(CN(CC3CCCO3)C(=O)Nc3ccccc3OC)cc2c1 (stereo not drawn) | inconclusive: 20 µM [inhibitor, single point] | 
13 | O=C(N/N=C/c1ccc(F)cc1)c1c(O)c2ccccc2[nH]c1=O | active: 3.55 µM | 
19 | COCCCNC(=O)C1CCC(CNS(=O)(=O)c2ccc(Cl)cc2)CC1 (stereo not drawn) | inactive | 
22 | CCOC(=O)c1ccc(NC(=O)[C@@H](NC(N)=O)C(C)C)cc1 | inconclusive: 1.26 µM [activator, single point] | 

(cont.)

Row | Compound | Potency | activity change, negative = inhibition
25 | O=C(/C=C/c1ccco1)NC(=S)Nc1nc(-c2ccc(Cl)cc2)cs1 | inconclusive: 3.55 µM [activator, single point] | 
26 | Oc1ccccc1C1=Nc2ccccc2N=C(c2ccco2)C1 | inactive | 
27 | CCCCCCN1C=C/C(=C\C=C(C#N)C#N)c2ccccc21 | inconclusive: 20 µM [inhibitor, partial curve] | 
28 | COc1ccc(-c2cnnc(N/N=C/c3ccc(O)cc3)n2)cc1 | inconclusive: 11.2 µM [activator, partial curve] | 
29 | Clc1cccc(Nc2ncnc3ccc(Br)cc23)c1 | active: 11.2 µM | 
30 | Cc1cc(C)c(S(=O)(=O)c2ccccc2)c(OC(=O)c2c(Cl)cc(Cl)cc2Cl)n1 | inconclusive: 22.4 µM [inhibitor, single point] | 
31 | O=C1/C(=C\c2cccnc2)SC(=S)N1C1CCS(=O)(=O)C1 (stereo not drawn) | inconclusive: 25.1 µM [inhibitor, single point] | 
32 | CCN1CCN(C(=O)c2sc3nc(C)nc(N4CCC(C)CC4)c3c2C)CC1 | inactive | 
33 | COc1ccc(-c2cc3ccccc3oc2=O)cc1NC(=O)c1ccc([N+](=O)[O-])o1 | inconclusive: 12.6 µM [activator, partial curve] | 
34 | O=C1CC(NCc2ccco2)C(=O)N1CCc1ccccc1 (stereo not drawn) | inactive | 
35 | O=C(NCc1cccc(F)c1)C1CCN(C(=O)c2sccc2-n2cccc2)CC1 | inactive | 
36 | Cc1cc(NC(=O)Cn2c(=O)n(Cc3ccccc3)c(=O)c3ccccc32)no1 | inconclusive: 35.5 µM [inhibitor, single point] | 
37 | CC(=O)CC(C)=NCCN=C(C)CC(C)=O | inconclusive: 35.5 µM [activator, single point] | 
38 | CC1CCN(c2cc(N3CCOCC3)c([N+](=O)[O-])cc2F)CC1 | inconclusive: 11.2 µM [inhibitor, single point] | 
39 | O=C(/C=C/c1ccccc1)n1cnnc1SC/C=C/c1ccccc1 | inconclusive: 6.31 µM [inhibitor, single point] | 
40 | CCCOc1ccc(C(=O)CCN2CCN(C(=O)OCC)CC2)cc1 | inactive | 
41 | CNc1nnc(-c2ccc(N(C)C)cc2)s1 | inactive | 
42 | Nc1nc2c(c(=O)[nH]1)N(C=O)[C@H](CNc1ccc(C(=O)N[C@@H](CCC(=O)O)C(=O)O)cc1)CN2 | inactive | 
43 | CC(=O)n1cc(C2C(=O)CC(C)(C)CC2=O)c2ccccc21 | inconclusive: 5.62 µM [inhibitor, single point] | 
44 | Cc1cc([N+](=O)[O-])nn1CCC(=O)Nc1nccs1 |  | inactive: 3.8% [at 9.22 µM]
45 | COC(=O)c1ccccc1NC(=O)CNc1cc(Cl)ccc1N1CCOCC1 | inactive | 
46 | COc1cc2c3nnc(-c4ccc(F)cc4)c-3cn(Cc3ccccc3F)c2cc1OC | active: 7.08 µM | 
47 | Cc1[nH]n(-c2ccccc2)c(=O)c1N=Nc1ccccc1O | inconclusive: 2.24 µM [inhibitor, partial curve] | 
48 | O=C(Nc1cccc(C(F)(F)F)c1)c1cc(Br)cc(Br)c1O | active: 5.01 µM | 

From PubChem BioAssay AID1688 (National Center for Advancing Translational Sciences (NCATS), 2009)
